In this series the test system is 3D spheroids constructed from immortal human C3A hepatocytes (HepG2/C3A).

As to `CCCCc1oc2ccccc2c1C(=O)c1cc(I)c(OCCN(CC)CC)c(I)c1` [Amiodarone, amiodarone], the “cellular ATP production at low compound concentrations” value is on record as “slightly increased”. The LD50 (human) is given as 0.6 mg compound/mg cellular protein.

Values taken from paper PMC3355318 (Toxicological Sciences, 2012).
